These are yes or no findings as the source states them, for the method shown. Some entries that bind do so weakly or less than the wild type.
How the values were obtained:
[1] = molecular target: T1, SSBΔ6, purified (Bacillus subtilis) (UniProt P37455); experiment: pull-down; streptavidin magnetic beads with a biotinylated 65-mer ssDNA coated by purified SSB or SSBΔ6 (80 pmol of tetramer; SSBΔ35: 100 pmol of tetramer, 60 pmol of tested protein); purified protein added in 20 mM Tris-HCl pH 7.5, 200 mM NaCl, 30 min, 20°C; SDS-PAGE, Coomassie; both purified
T1 sequence: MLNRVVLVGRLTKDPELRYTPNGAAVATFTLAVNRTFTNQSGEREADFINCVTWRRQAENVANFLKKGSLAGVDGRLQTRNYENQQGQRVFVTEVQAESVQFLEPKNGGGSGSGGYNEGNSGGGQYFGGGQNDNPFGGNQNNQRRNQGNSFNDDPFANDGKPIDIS

[2] = molecular target: T2, SSBΔ35, purified (Bacillus subtilis) (UniProt P37455); experiment: as above
T2 sequence: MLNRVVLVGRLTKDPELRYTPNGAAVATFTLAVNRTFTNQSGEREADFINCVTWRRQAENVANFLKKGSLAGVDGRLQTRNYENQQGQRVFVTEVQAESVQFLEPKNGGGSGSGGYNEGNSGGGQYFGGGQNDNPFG

[3] = molecular target: T3, Bacillus subtilis Single-Stranded DNA Binding protein (SSB), purified (Bacillus subtilis) (UniProt P37455); experiment: SEC; purified RecS (4 µM) or YpbB/RecS (4 µM) mixed on ice with SSB (16 µM or 40 µM, as monomers) and loaded onto a gel-filtration column; fractions on SDS-PAGE, Coomassie; both purified
T3 sequence: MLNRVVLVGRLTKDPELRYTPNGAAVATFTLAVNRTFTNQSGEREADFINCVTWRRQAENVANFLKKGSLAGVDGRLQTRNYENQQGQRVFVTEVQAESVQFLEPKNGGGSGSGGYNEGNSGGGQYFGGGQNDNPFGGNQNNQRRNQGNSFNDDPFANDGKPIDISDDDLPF

[4] = molecular target: T3, Bacillus subtilis Single-Stranded DNA Binding protein (SSB), purified (Bacillus subtilis); experiment: pull-down; streptavidin magnetic beads with a biotinylated 65-mer ssDNA coated by purified SSB or SSBΔ6 (80 pmol of tetramer; SSBΔ35: 100 pmol of tetramer, 60 pmol of tested protein); purified protein added in 20 mM Tris-HCl pH 7.5, 200 mM NaCl, 30 min, 20°C; SDS-PAGE, Coomassie; both purified

B1: DnaE, purified (enzyme, UniProt O34623 1-1115)
chain: MSFVHLQVHSGYSLLNSAAAVEELVSEADRLGYASLALTDDHVMYGAIQFYKACKARGINPIIGLTASVFTDDSELEAYPLVLLAKSNTGYQNLLKISSVLQSKSKGGLKPKWLHSYREGIIAITPGEKGYIETLLEGGLFEQAAQASLEFQSIFGKGAFYFSYQPFKGNQVLSEQILKLSEETGIPVTATGDVHYIRKEDKAAYRCLKAIKAGEKLTDAPAEDLPDLDLKPLEEMQNIYREHPEALQASVEIAEQCRVDVSLGQTRLPSFPTPDGTSADDYLTDICMEGLRSRFGKPDERYLRRLQYELDVIKRMKFSDYFLIVWDFMKHAHEKGIVTGPGRGSAAGSLVAYVLYITDVDPIKHHLLFERFLNPERVSMPDIDIDFPDTRRDEVIQYVQQKYGAMHVAQIITFGTLAAKAALRDVGRVFGVSPKEADQLAKLIPSRPGMTLDEARQQSPQLDKRLRESSLLQQVYSIARKIEGLPRHASTHAAGVVLSEEPLTDVVPLQEGHEGIYLTQYAMDHLEDLGLLKMDFLGLRNLTLIESITSMIEKEENIKIDLSSISYSDDKTFSLLSKGDTTGIFQLESAGMRSVLKRLKPSGLEDIVAVNALYRPGPMENIPLFIDRKHGRAPVHYPHEDLRSILEDTYGVIVYQEQIMMIASRMAGFSLGEADLLRRAVSKKKKEILDRERSHFVEGCLKKEYSVDTANEVYDLIVKFANYGFNRSHAVAYSMIGCQLAYLKAHYPLYFMCGLLTSVIGNEDKISQYLYEAKGSGIRILPPSVNKSSFPFTVENGSVRYSLRAIKSVGVSAVKDIYKARKEKPFEDLFDFCFRVPSKSVNRKMLEALIFSGAMDEFGQNRATLLASIDVALEHAELFAADDDQMGLFLDESFSIKPKYVETEELPLVDLLAFEKETLGIYFSNHPLSAFRKQLTAQGAVSILQAQRAVKRQLSLGVLLSKIKTIRTKTGQNMAFLTLSDETGEMEAVVFPEQFRQLSPVLREGALLFTAGKCEVRQDKIQFIMSRAELLEDMDAEKAPSVYIKIESSQHSQEILAKIKRILLEHKGETGVYLYYERQKQTIKLPESFHINADHQVLYRLKELLGQKNVVLKQW
Q: Which results are given for B1?
A: binding [1]: binds weakly; binding [2]: binds weakly

B2: RecS, purified (enzyme, UniProt P50729 1-496)
chain: MTKLQQTLYQFFGFTSFKKGQQDIIESILSGKDTIAMLPTGGGKSLCYQLPGYMLDGMVLIVSPLLSLMEDQVQQLKARGEKRAAALNSMLNRQERQFVLEHIHRYKFLYLSPEALQSPYVLEKLKSVPISLFVIDEAHCISEWGHDFRPDYSKLGQLRKKLGHPPVLALTATATKETLQDVMNLLELQHAVRHLNSVNRPNIALRVENAADTAEKIDRVIQLVENLQGPGIVYCPTRKWAKELAGEIKSKTSSRADFYHGGLESGDRILIQQQFIHNQLDVICCTNAFGMGVDKPDIRYVIHFHLPQTAEAFMQEIGRAGRDGKPSVSILLRAPGDFELQEQIIQMESVTAEEIADVIRVLEKTEERDERRLRDVLLQYGVGETQARMMIHLFMQGKTSVELMKKEISYRMELKLEKMHRVSFLLQRDGCLRQALLTYFDESYEPDDGNLPCCSHCGFDLSLYEQKGERSKMAPLDSWSSELHRIFSLQTVGELN
Q: With B2 as the binder, how does the binding [3] read?
A: no binding (tested: RecS 4 µM, SSB 16 µM)

B3: PcrA, purified (enzyme, UniProt O34580 1-739)
chain: MNYISNQLLSGLNPVQQEAVKTTDGPLLLMAGAGSGKTRVLTHRIAYLMAEKHVAPWNILAITFTNKAAREMKERVESILGPGADDIWISTFHSMCVRILRRDIDRIGINRNFSILDTADQLSVIKGILKERNLDPKKFDPRSILGTISSAKNELTEPEEFSKVAGGYYDQVVSDVYADYQKKLLKNQSLDFDDLIMTTIKLFDRVPEVLEFYQRKFQYIHVDEYQDTNRAQYMLVKQLAERFQNLCVVGDSDQSIYRWRGADITNILSFEKDYPNASVILLEQNYRSTKRILRAANEVIKNNSNRKPKNLWTENDEGIKISYYRGDNEFGEGQFVAGKIHQLHSTGKRKLSDIAILYRTNAQSRVIEETLLKAGLNYNIVGGTKFYDRKEIKDILAYLRLVSNPDDDISFTRIVNVPKRGVGATSLEKIASYAAINGLSFFQAIQQVDFIGVSAKAANALDSFRQMIENLTNMQDYLSITELTEEILDKTEYREMLKAEKSIEAQSRLENIDEFLSVTKNFEQKSEDKTLVAFLTDLALIADIDQLDQKEEESGGKDAITLMTLHAAKGLEFPVVFLMGLEEGVFPHSRSLMEEAEMEEERRLAYVGITRAEQELYLTNAKMRTLFGRTNMNPESRFIAEIPDDLLENLNEKKETRATSARKMQPRRGPVSRPVSYASKTGGDTLNWAVGDKAGHKKWGTGTVVSVKGEGEGTELDIAFPSPVGVKRLLAAFAPIEKQ
Q: With B3 as the binder, how does the binding [4] read?
A: no binding
